{"source": "patent US6433001B1", "about": "“1H-indole-3-glyoxylamide sPLA2 inhibitors” (Eli Lilly and Company, priority 1994, dated 2002)", "molecular_target": "T1, Human Secreted Phospholipase A2 (Homo sapiens, UniProt P14555)", "T1 sequence (P14555 21-144)": "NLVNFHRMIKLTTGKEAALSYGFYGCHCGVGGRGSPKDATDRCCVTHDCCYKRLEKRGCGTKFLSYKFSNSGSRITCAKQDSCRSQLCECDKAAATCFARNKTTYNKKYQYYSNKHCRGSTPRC", "assay": "chromogenic assay for inhibitors of recombinant human secreted phospholipase A2", "assay_type": "biochemical", "details": "comment on Table I", "experimental": "The following chromogenic assay procedure was used to identify and evaluate inhibitors of recombinant human secreted phospholipase A2. The assay described herein has been adapted for high volume screening using 96 well microtiter plates.\nAdjust pH to 4.5 with acetic acid\nDTNB—5,5′-dithiobis-2-nitrobenzoic acid\nRACEMIC DIHEPTANOYL THIO—PC\nracemic 1,2-bis(heptanoylthio)-1,2-dideoxy-sn-glycero-3-phosphorylcholine\nTRITON X-100™ prepare at 6.249 mg/ml in reaction buffer to equal […].\nA measured volume of racemic dipheptanoyl thio PC supplied in chloroform at a concentration of 100 mg/ml is taken to dryness and redissolved in 10 millimolar TRITON X-100™ nonionic detergent aqueous solution.\nReaction Buffer is added to the solution, then DTNB to give the Reaction Mixture.\nThe reaction mixture thus obtained contains 1 mM diheptanoly thio-PC substrate, 0.29 mm Triton X-100™ detergent, and 0.12 mm DTMB in a buffered aqueous solution at pH 7.5.\n1. Add 0.2 ml reaction mixture to all wells;\n2. Add 10 ul test compound (or solvent blank) to appropriate wells, mix 20 seconds;\n3. […]\n5. Read absorbance of wells at 405 nanometers with an automatic plate reader.\nAll compounds were tested in triplicate. […] In all cases, % inhibition measured at 405 nanometers generated by enzyme reactions containing inhibitors relative to the uninhibited control reactions was determined. […]", "note": "Some entries share one result that the patent states for a list of compounds.", "data": [{"smiles": "CCc1c(C(=O)C(N)=O)c2c(OCC(=O)O)cccc2n1Cc1ccccc1", "note": "[Example 9, [[3-(2-Amino-1,2-dioxoethyl)-2-ethyl-1-(phenylmethyl)-1H-indol-4-yl]oxy]acetic Acid]", "values": [{"measurement": "activity in inhibiting sPLA2 (in words)", "result": "highly active"}]}]}
